These results are taken from patent US11118065B2, “Fluorenylaminoketone photoinitiator, preparation method thereof, and UV photocurable composition containing same” (CHANGZHOU TRONLY ADVANCED ELECTRONIC MATERIALS CO., LTD., priority 2017, dated 2021).

Series [1] in a line: Example 22: UV etching resist ink. More on the design: key to Odor: 1: odorless; 2: odorous; 3: irritatingly odorous; key to Pattern integrity: Δ: there was no defect; □: there were a few defects; ▴: there were severe defects. Conditions: for Odor: residual odor of cured film.
Series [2] in a line: Example 25: UV offset printing ink on plastic substrate. On the set-up: key to Odor: 1: odorless; 2: odorous; 3: irritatingly odorous. Conditions: for Exposure demand mJ/cm^2: 2 μm, 250-450 nm; for Adherence: crosscut test GB9286-88; for Odor: residual odor of cured film; for Yellowing: value of Δb.
The nature of series [3]: Example 24: UV flexographic printing ink on white paperboard. On the set-up: key: 1: odorless; 2: odorous; 3: irritatingly odorous. Conditions: residual odor of cured film.
Series [4] can be described thus: Example 23: UV solder resist ink. On the set-up: key to Odor: 1: odorless; 2: odorous; 3: irritatingly odorous; key to Pattern integrity: Δ: there was no defect; □: there were a few defects; ▴: there were severe defects; key to Developability: ∘: no residue was observed in unexposed portions; ⊚: a small amount of residue was observed in unexposed portions, but the residual amount was acceptable; ●: significant residue was observed in unexposed portions. To be noted: for Exposure demand mJ/cm^2: dry film 12-15 μm, 250-450 nm; for Odor: residual odor of cured film; for Yellowing: value of Δb.

Series [5] can be described thus: Test of curing property: UV curing ink spray coated on ceramic tile. To be noted: hundred-grid crosscut method, 5% photoinitiator, 60-80 μm, UV 80 mw/cm^2 for 50s.
A short description of series [6]: Example 21: UV coating on tin-plated steel plate. On the set-up: key to Odor: 1: odorless; 2: odorous; 3: irritatingly odorous. To be noted: for Exposure demand mJ/cm^2: 25 μm, 250-450 nm; for Adherence: crosscut test GB9286-88; for Odor: residual odor of cured film; for Yellowing: value of Δb, colorimeter scan 400-700 nm, after baking at 80° C. for 24 h.

As to `Cc1ccc2c(c1)C(C)(C)c1cc(C(=O)C(C)(C)N3CCOCC3)ccc1-2` [Compound 3], in series [1], the Pattern integrity entry is given as “Δ” and the Odor is 1. In series [2], the “Exposure demand mJ/cm^2” value came to 120 mJ/cm^2, the Adherence result is on record as “Level 0”, the Odor was 1 and the Yellowing was found to be 0.63. Further, the Odor in series [3] is given as 1.

In turn, `CCCCC1(CCCC)c2cc(Cl)ccc2-c2ccc(C(=O)C(C)(C)N3CCOCC3)cc21` [Compound 6] registered an Odor in series [3] of 1.

For the compound `CCCCC1(CCCC)c2cc(C(=O)c3ccccc3C)ccc2-c2ccc(C(=O)C(C)(C)N3CCOCC3)cc21` [Compound 10], in series [1], the Pattern integrity entry was “Δ” and the Odor is recorded as 1. In series [3], this compound had an Odor of 1. In addition, in series [4], the Pattern integrity result is recorded as “Δ”, the “Exposure demand mJ/cm^2” value is on record as 100 mJ/cm^2, the Odor was 1 and the Yellowing stood at 0.75.

For the compound `CCCCC1(CCCC)c2cc(OC)ccc2-c2ccc(C(=O)C(C)(C)N3CCCCC3)cc21` [Compound 16], the Odor in series [3] was 1.

Consider `CC(C)(C(=O)c1ccc2c(c1)Cc1cc(C(=O)C(C)(C)N3CCCCC3)ccc1-2)N1CCCCC1` [Compound 24], for which, in series [1], the Pattern integrity result is reported as “Δ”. Besides, the Odor in series [1], in series [2] and in series [6] was 1 each time. Moreover, the Adherence entry in series [5] (black ink), in series [5] (blue ink), in series [5] (red ink), in series [5] (yellow ink), in series [2] and in series [6] was “Level 0” each time. Moreover, the “Exposure demand mJ/cm^2” value in series [2] is 110 mJ/cm^2; in series [6], 120 mJ/cm^2. For the same compound, the figures for the Yellowing in series [2] and in series [6] were 0.58 and 0.77, respectively.

Compound `CCCCC1(CCCC)c2cc(C(=O)C(C)(C)N(CCC)CCC)ccc2-c2ccc(C(=O)C(C)(C)N(CCC)CCC)cc21` [Compound 25] yielded an Odor in series [3] of 1. Besides, in series [4], the Pattern integrity entry is listed as “Δ”, the “Exposure demand mJ/cm^2” value was determined as 100 mJ/cm^2, the Odor turned out to be 1 and the Yellowing is 0.81.

In the case of `CN(C)C(C)(Cc1ccccc1)C(=O)c1ccc2c(c1)Cc1ccccc1-2` (centres unmarked) [Compound 26], in series [3], the Odor worked out at 1. In series [6], the “Exposure demand mJ/cm^2” value turned out to be 110 mJ/cm^2, the Adherence entry was “Level 0”, the Odor stood at 1 and the Yellowing was found to be 0.79. Besides, in series [4], the Pattern integrity result is recorded as “Δ”, the “Exposure demand mJ/cm^2” value is given as 110 mJ/cm^2, the Odor was 1 and the Yellowing is recorded as 0.79.

With `CCCCC1(CCCC)c2ccccc2-c2ccc(C(=O)C(C)(Cc3ccccc3)N3CCOCC3)cc21` (centres unmarked) [Compound 29], in series [1], the Pattern integrity entry is recorded as “Δ” and the Odor came to 1. In series [3], this compound had an Odor of 1. In series [4], the Pattern integrity result is reported as “Δ”, the “Exposure demand mJ/cm^2” value is recorded as 100 mJ/cm^2, the Odor was 1 and the Yellowing is given as 0.73.

With `CCCCC1(CCCC)c2cc(C(=O)c3ccccc3)ccc2-c2ccc(C(=O)C(CC)(Cc3ccccc3)N3CCOCC3)cc21` (centres unmarked) [Compound 33], in series [2], the “Exposure demand mJ/cm^2” value stood at 110 mJ/cm^2, the Adherence result is on record as “Level 0”, the Odor worked out at 1 and the Yellowing amounted to 0.62. Further, in series [3], the Odor is on record as 1.

As to `C=CCC1(CC=C)c2ccccc2-c2ccc(C(=O)C(CC)(Cc3ccccc3)N(C)C)cc21` (centres unmarked) [Compound 34], the Adherence result in series [5] (black ink), in series [5] (red ink), in series [5] (yellow ink) and in series [6] was “Level 0” each time. For the same compound, the Odor in series [3], in series [6] and in series [4] was 1 in each case. Besides, the “Exposure demand mJ/cm^2” value in series [6] turned out to be 110 mJ/cm^2; in series [4], 100 mJ/cm^2. For the same compound, the Yellowing in series [6] was 0.75; in series [4] it was 0.79. The Pattern integrity entry in series [4] is on record as “Δ”.

Compound `COc1ccc2c(c1)C1(CCC3(CC1)c1cc(OC)ccc1-c1ccc(C(=O)C(C)(C)N4CCOCC4)cc13)c1cc(C(=O)C(C)(C)N3CCOCC3)ccc1-2` (centres unmarked) [Compound 36] yielded an Odor in series [3] of 1.

Regarding `CCCCN(CCCC)c1ccc2c(c1)C(C)(C)c1cc(C(=O)C(CC)(Cc3ccccc3)N(C)C)ccc1-2` (centres unmarked) [Compound 42], in series [1], the Pattern integrity result is given as “Δ” and the Odor stood at 1. Besides, the Odor in series [3] was 1. In series [4], the Pattern integrity result is reported as “Δ”, the “Exposure demand mJ/cm^2” value came to 110 mJ/cm^2, the Odor worked out at 1 and the Yellowing was found to be 0.72.

As to `CCC(Cc1ccc(C)cc1)(C(=O)c1ccc2c(c1)C(C)(C)c1cc(N3CCCCC3)ccc1-2)N1CCCCC1` (centres unmarked) [Compound 44], in series [3], the Odor is reported as 1.

With `CCC(Cc1ccccc1)(C(=O)c1ccc2c(c1)C(C)(C)c1cc(N(CCO)CCO)ccc1-2)N(C)C` (centres unmarked) [Compound 45], the Pattern integrity result in series [1] and in series [4] was “Δ” in each case. Moreover, the Odor in series [1], in series [6] and in series [4] was 1 throughout. Moreover, the Adherence entry in series [5] (black ink), in series [5] (blue ink), in series [5] (red ink), in series [5] (yellow ink) and in series [6] was “Level 0” throughout. For the same compound, the “Exposure demand mJ/cm^2” value in series [6] came to 120 mJ/cm^2; in series [4], 100 mJ/cm^2. Besides, the Yellowing in series [6] was 0.73; in series [4] it was 0.74.

Take `CC(C)(C(=O)c1ccc(-c2ccccc2)cc1)N1CCOCC1` [Compound 307, 1-([1,1-biphenyl]-4-yl)-2-methyl-2-morpholinylpropan-1-one, reference compound]: in series [1], the Pattern integrity entry is on record as “▴” and the Odor stood at 1. This compound also displayed an Odor in series [3] of 1. In addition, in series [6], the “Exposure demand mJ/cm^2” value came out at 220 mJ/cm^2, the Adherence entry was “Level 1”, the Odor turned out to be 1 and the Yellowing is 1.33. For the same compound, in series [4], the Pattern integrity result is “▴”, the “Exposure demand mJ/cm^2” value turned out to be 190 mJ/cm^2, the Odor is 1 and the Yellowing is given as 1.03. In addition, the Developability entry in series [4] (0.5% sodium hydroxide, 30±2° C., 60s, SEM) is listed as “⊚”.

Turning to `CSc1ccc(C(=O)C(C)(C)N2CCOCC2)cc1` [Compound 907, 2-methyl-1-[4-(methylthio)phenyl]-2-(4-morpholinyl)-1-acetone, reference compound], the Pattern integrity result in series [1] and in series [4] was “▴” each time. The Odor in series [1], in series [2], in series [3], in series [6] and in series [4] was 3 each time. Also, the Adherence entry is on record as “Level 3” in series [5] (black ink); “Level 2” in series [5] (blue ink); “Level 3” in series [5] (red ink); “Level 2” in series [5] (yellow ink); “Level 1” in series [2]; “Level 1” in series [6]. Moreover, the results for the “Exposure demand mJ/cm^2” value in series [2], in series [6] and in series [4] were 200 mJ/cm^2, 200 mJ/cm^2 and 180 mJ/cm^2, respectively. The values for the Yellowing in series [2], in series [6] and in series [4] were 2.34, 2.68 and 2.54, respectively.
